Taken from: PubChem BioAssay AID743454 (Peter MacCallum Cancer Centre, 2014)

Screen: 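Knock-downs lowering viability or raising caspase 3/7 activity in vorinostat-treated resistant cells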 (primary screen)
Cells: human HCT116-VR colon cancer cells, selected for vorinostat resistance
Reagent: siRNA pool against human genes, 40 nM siRNA pool
Duration: vorinostat for 24 h, read-out about 72 h after transfection
Treatment: vorinostat at 2.5 µM final
Read-out: 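Cell viability by CellTiter-Fluor and caspase 3/7 activity by luminescence, each scaled to mock wells per plate, duplicates averaged, then robust z-scored over all plates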
Reading the numbers: viability robust z-score: higher = more viable cells than screen typical; caspase robust z-score: higher = more caspase 3/7 activity than screen typical
Active means: 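a knock-down is a hit when classed RV1 or RV2 for lowered viability, or CA1 or CA2 for caspase activation; those lethal without drug were dropped; hits were retested singly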
Here is an unselected part of about 18,000 deposited reagents. 450 of all reagents (2.5%) were called active. 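Single biological run; no consistent viability z cut-off exists, so the class columns, not z-scores, define the calls.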

Silencing of RSPH3 resulted in: viability hit class no change; caspase hit class no change; viability robust z-score -0.36; caspase robust z-score 0.96; inactive.
Depletion of COQ2 came out at: viability hit class no change; caspase hit class no change; viability robust z-score -1.3; caspase robust z-score 1.68; inactive.
With knock-down of MAPRE1, the screen gave viability hit class no change; caspase hit class no change; viability robust z-score 0.86; caspase robust z-score -0.32; inactive.
Against PCNX2, the values are viability hit class no change; caspase hit class no change; viability robust z-score -1.01; caspase robust z-score 3.04; inactive.
Against ZFP82, the entry reads viability hit class no change; caspase hit class no change; viability robust z-score -1.16; caspase robust z-score 0.41; inactive.
Depletion of TREX1 came out at: viability hit class no change; caspase hit class no change; viability robust z-score -0.4; caspase robust z-score 0.06; inactive.
Silencing of PIGF gave: viability hit class no change; caspase hit class no change; viability robust z-score -0.01; caspase robust z-score -0.57; inactive.
Depletion of SLC66A3 resulted in: viability hit class no change; caspase hit class no change; viability robust z-score -1.4; caspase robust z-score -0.18; inactive.
Against CDC14A, the values are viability hit class no change; caspase hit class no change; viability robust z-score 0.5; caspase robust z-score 0.09; inactive.
For NFATC2IP the deposit lists viability hit class no change; caspase hit class no change; viability robust z-score 0.62; caspase robust z-score 1.52; inactive.
RAVER1 scored viability hit class no change; caspase hit class no change; viability robust z-score -0.18; caspase robust z-score 0.75; inactive.
ZNF676 scored viability hit class no change; caspase hit class no change; viability robust z-score 0.06; caspase robust z-score -0.2; inactive.
Depletion of LY6G6D resulted in: viability hit class no change; caspase hit class no change; viability robust z-score -2.12; caspase robust z-score -0.85; inactive.
With knock-down of KLF16, the record shows viability hit class no change; caspase hit class no change; viability robust z-score -3.12; caspase robust z-score -0.36; inactive.
With knock-down of LPP, the record shows viability hit class no change; caspase hit class no change; viability robust z-score -0.94; caspase robust z-score -0.9; inactive.
SCYL3 showed viability hit class no change; caspase hit class no change; viability robust z-score 0.34; caspase robust z-score -1.03; inactive.
Depletion of EIF4B resulted in: viability hit class no change; caspase hit class no change; viability robust z-score -0.55; caspase robust z-score -1.19; inactive.
VPS26C scored viability hit class no change; caspase hit class no change; viability robust z-score 0.71; caspase robust z-score -0.3; inactive.
After knock-down of ECHS1, the screen gave viability hit class no change; caspase hit class no change; viability robust z-score -1.05; caspase robust z-score 3.78; inactive.
KDM5D gave viability hit class no change; caspase hit class CA1 (caspase activation); viability robust z-score -1.58; caspase robust z-score 5.4; active.
After knock-down of VKORC1L1, the record shows viability hit class no change; caspase hit class no change; viability robust z-score -0.67; caspase robust z-score -0.24; inactive.

Limited to “viability hit class”, for 2 of the entries above:
MAPRE1: no change
PCNX2: no change
